# Results deposited as PubChem BioAssay AID1224826 (NIAID, 2016).
# Assay: 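Knock-downs that raise or lower Tnf reporter signal after endotoxin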 (primary screen)
# Cell system: RAW264.7 G9 macrophages from mouse bearing reporters for p65 (GFP) and the Tnf promoter (mCherry)
# Reagents: siRNA pool against mouse genes, 100 nM
# Time to read-out: 16 h of LPS stimulation, after 2 days of siRNA transfection
# Challenge: bacterial lipopolysaccharide (Salmonella minnesota R595), 10 ng/ml
# Read-out: 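Nuclear mCherry signal of the Tnf promoter reporter measured by imaging after background removal, scaled to each plate median and turned into robust z-scores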
# Reading the numbers: Tnf reporter robust z-score: higher = stronger Tnf promoter reporter signal after LPS; Tnf reporter intensity: higher = stronger Tnf promoter reporter signal
# Hit rule: 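a well counts as active at a score of -1.3 or below (Tlr4 knock-down control median) or above 3 (raised signal); controls and wells holding fewer than 50 cells are excluded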
# Calls: active = Tnf reporter clearly lowered or raised; inactive = no clear change in Tnf reporter
# This is one part, drawn at random, of about 17,000 reagents. Of all reagents, about 1,110 (6.6%) are marked active. 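Active means lowered or raised reporter signal; replicate intensities are raw and not normalised per plate.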 Reagents against one gene are numbered here.
target gene,reagent,Tnf reporter robust z-score,fewer than 50 cells in well,"Tnf reporter intensity, replicate 1","Tnf reporter intensity, replicate 2",Outcome
Chmp3 (GeneID 66700),1,1.19,enough cells in well,187,108,inactive
Dnaaf10 (GeneID 103784),1,0.04,enough cells in well,211,188,inactive
D630028G08Rik (GeneID 320379),1,-2.18,enough cells in well,121,34.7,active
Psen2 (GeneID 19165),1,0.41,enough cells in well,259,238,inactive
Tifa (GeneID 211550),1,1.77,enough cells in well,173,161,inactive
Lilra6 (GeneID 18726),1,0.42,enough cells in well,153,95.9,inactive
Plpp3 (GeneID 67916),1,0.59,enough cells in well,277,246,inactive
Carf (GeneID 241066),1,-0.39,enough cells in well,132,131,inactive
Pabir3 (GeneID 73866),1,0.53,enough cells in well,257,79.1,inactive
Amz2 (GeneID 13929),1,-0.11,enough cells in well,75.2,171,inactive
Hmbox1 (GeneID 219150),1,-0.27,enough cells in well,186,150,inactive
Ces2b (GeneID 234669),1,1.46,enough cells in well,312,304,inactive
Glce (GeneID 93683),1,1.19,enough cells in well,327,141,inactive
Riok1 (GeneID 71340),1,1.19,enough cells in well,260,239,inactive
Fsd1l (GeneID 319636),1,0.53,enough cells in well,184,199,inactive
Slc38a9 (GeneID 268706),1,5.36,enough cells in well,440,209,active
Slc38a9 (GeneID 268706),2,-0.6,enough cells in well,169,124,inactive
Sh2d1a (GeneID 20400),1,0.21,enough cells in well,295,234,inactive
Map10 (GeneID 74393),1,-0.28,enough cells in well,200,55.9,inactive
Or10al6 (GeneID 258285),1,-1.17,enough cells in well,110,93.6,inactive
Sval1 (GeneID 71578),1,0.74,enough cells in well,160,92,inactive
Aqp4 (GeneID 11829),1,-0.3,enough cells in well,125,182,inactive
Irf2bp1 (GeneID 272359),1,-1.89,enough cells in well,77.4,44.3,active
Scnn1g (GeneID 20278),1,1.06,enough cells in well,382,289,inactive
Fam53b (GeneID 77938),1,-1.54,enough cells in well,81.4,74.6,active
Tgm3 (GeneID 21818),1,0.3,enough cells in well,157,79.1,inactive
Hsd17b6 (GeneID 27400),1,-1.95,enough cells in well,75.7,38.5,active
Vcf1 (GeneID 28081),1,-0.12,enough cells in well,126,222,inactive
Kdm5d (GeneID 20592),1,-0.51,enough cells in well,179,95.2,inactive
Tpx2 (GeneID 72119),1,,fewer than 50 cells per well; well left out of calls,158,50.5,inactive
Sirpa (GeneID 19261),1,-0.41,enough cells in well,183,191,inactive
Osbp (GeneID 76303),1,0.37,enough cells in well,233,234,inactive
Ptk2 (GeneID 14083),1,1.72,enough cells in well,279,282,inactive
Prl8a2 (GeneID 13529),1,0.89,enough cells in well,258,139,inactive
Ndufa13 (GeneID 67184),1,0.32,enough cells in well,266,186,inactive
Mga (GeneID 29808),1,-0.51,enough cells in well,176,105,inactive
Nalf1 (GeneID 270028),1,1.22,enough cells in well,209,263,inactive
4930470P17Rik (GeneID 67637),1,-0.4,enough cells in well,166,62.4,inactive
Polg (GeneID 18975),1,-0.74,enough cells in well,217,117,inactive
Mpg (GeneID 268395),1,-1.03,enough cells in well,176,131,inactive
Mars2 (GeneID 212679),1,0.79,enough cells in well,218,209,inactive
Trim12a (GeneID 76681),1,-0.04,enough cells in well,116,56.3,inactive
Or1o4 (GeneID 258508),1,,fewer than 50 cells per well; well left out of calls,62.4,63,inactive
Chrna5 (GeneID 110835),1,-0.7,enough cells in well,167,179,inactive
Cideb (GeneID 12684),1,0.27,enough cells in well,293,204,inactive
Tll1 (GeneID 21892),1,-0.2,enough cells in well,209,131,inactive
Rdh7 (GeneID 54150),1,2.23,enough cells in well,205,244,inactive
Zpbp2 (GeneID 69376),1,-0.53,enough cells in well,167,72.6,inactive
Pak1 (GeneID 18479),1,0.22,enough cells in well,195,177,inactive
Htatsf1 (GeneID 72459),1,1.67,enough cells in well,225,271,inactive
Slc26a2 (GeneID 13521),1,1.52,enough cells in well,347,206,inactive
Gjb1 (GeneID 14618),1,-0.66,enough cells in well,209,174,inactive
Spred1 (GeneID 114715),1,1.98,enough cells in well,198,137,inactive
Crybb3 (GeneID 12962),1,0.94,enough cells in well,293,284,inactive
Itgb6 (GeneID 16420),1,1.42,enough cells in well,364,216,inactive
Nle1 (GeneID 217011),1,0.08,enough cells in well,234,281,inactive
Il3 (GeneID 16187),1,-0.94,enough cells in well,136,87.1,inactive
Ube2b (GeneID 22210),1,0.41,enough cells in well,272,250,inactive

10 entries already listed, sorted by “Tnf reporter intensity, replicate 1”, lowest first.
target gene,reagent,Tnf reporter robust z-score,fewer than 50 cells in well,"Tnf reporter intensity, replicate 1","Tnf reporter intensity, replicate 2",Outcome
Hsd17b6 (GeneID 27400),1,-1.95,enough cells in well,75.7,38.5,active
Vcf1 (GeneID 28081),1,-0.12,enough cells in well,126,222,inactive
Tgm3 (GeneID 21818),1,0.3,enough cells in well,157,79.1,inactive
Tpx2 (GeneID 72119),1,,fewer than 50 cells per well; well left out of calls,158,50.5,inactive
Kdm5d (GeneID 20592),1,-0.51,enough cells in well,179,95.2,inactive
Sirpa (GeneID 19261),1,-0.41,enough cells in well,183,191,inactive
Osbp (GeneID 76303),1,0.37,enough cells in well,233,234,inactive
Prl8a2 (GeneID 13529),1,0.89,enough cells in well,258,139,inactive
Ndufa13 (GeneID 67184),1,0.32,enough cells in well,266,186,inactive
Ptk2 (GeneID 14083),1,1.72,enough cells in well,279,282,inactive
